Here are results for one molecule from PMC3870133.

Sequences of proteins named here, by UniProt entry; tags and fusion partners are left off. A change or cut given only in a name is not applied to a line headed by its entry.
UniProt P30561: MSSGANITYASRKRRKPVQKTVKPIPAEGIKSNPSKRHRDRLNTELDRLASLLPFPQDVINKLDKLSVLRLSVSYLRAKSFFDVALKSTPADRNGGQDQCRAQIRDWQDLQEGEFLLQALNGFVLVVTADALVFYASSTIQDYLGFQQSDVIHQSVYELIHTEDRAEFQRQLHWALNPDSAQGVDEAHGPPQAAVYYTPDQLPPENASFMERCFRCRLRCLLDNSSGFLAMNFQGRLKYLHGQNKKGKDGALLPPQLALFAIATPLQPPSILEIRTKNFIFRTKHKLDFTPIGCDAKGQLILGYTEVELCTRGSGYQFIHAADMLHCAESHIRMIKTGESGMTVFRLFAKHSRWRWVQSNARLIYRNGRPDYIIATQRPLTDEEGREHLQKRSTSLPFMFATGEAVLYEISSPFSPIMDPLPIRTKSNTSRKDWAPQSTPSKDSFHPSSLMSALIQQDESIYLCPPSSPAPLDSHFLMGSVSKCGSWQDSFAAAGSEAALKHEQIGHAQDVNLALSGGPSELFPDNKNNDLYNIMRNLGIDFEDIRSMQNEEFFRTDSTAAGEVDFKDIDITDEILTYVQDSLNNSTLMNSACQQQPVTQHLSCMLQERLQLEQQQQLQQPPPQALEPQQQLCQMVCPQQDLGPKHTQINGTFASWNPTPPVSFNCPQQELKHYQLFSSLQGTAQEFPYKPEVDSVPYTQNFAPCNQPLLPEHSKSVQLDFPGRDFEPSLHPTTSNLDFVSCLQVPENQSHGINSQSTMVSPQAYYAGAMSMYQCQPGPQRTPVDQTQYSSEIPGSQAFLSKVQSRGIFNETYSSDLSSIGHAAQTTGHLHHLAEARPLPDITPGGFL

These are yes or no findings as the source states them, for the method shown. Binding seen in cells or lysates may run through a third protein. Binding can be weak; no strength is given.

The test addresses aryl-hydrocarbon receptor (AHR), endogenous (mouse (endogenous in Hepa1c1c7)) (UniProt P30561). The test can be described thus: co-IP; wild type Hepa1c1c7 supernatant (500 μg) in TTLB, anti-AHR antibody or normal rabbit IgG, protein G beads; blot with anti-Mrpl40.

B1: mitochondrial ribosomal protein L40 (Mrpl40) (protein, UniProt Q9Z2Q5 47-206)
chain: AEPLRKKKKVDPRKDQAAKDRLKKRIRKLEKASQELIPIEDFITPVRFLDKSRQRPQEEHSPEESERRALLLKRWALFKQQEHEMERDAIRSMLEAQQEALEELKLESAELYAEAIKRDTSLFPFEKEGPHYTPPISNYQAPEGRYNDITKVYTQVEFKR
Consider B1, for which the binding result is on record as “binds”.
